Data as given in PubChem BioAssay AID1508587 (Peter MacCallum Cancer Centre, 2020)
The whole screen tested about 1,600 reagents; shown is an unselected part. 623 of all reagents (39%) were called active. 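Calls are for each duplex; lactate ratios contain extreme outliers.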 Reagents against one gene are numbered here. Further read-outs or replicates are left out here.

- Aim: 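Retest of knockdowns boosting BRAF inhibitor action on lactate release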 (follow-up of hits)
- System: human WM266.4 melanoma cells with a BRAF V600 mutation
- Reagent: single siRNA against human genes, 25 nM
- Timing: 96 h
- Conditions: vemurafenib 300 nM (about IC25), given 48 h after transfection for 48 h
- Detection: 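Per-cell lactate from absorbance divided by DAPI nucleus counts, compared with and without vemurafenib, relative to non-targeting siRNA, mean of 2 replicates; nuclear counts also give cell number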
- Reading the numbers: lactate per cell, drug vs no drug: higher = less drug-induced drop in lactate per cell; lactate per cell with vemurafenib: higher = more lactate per cell under drug
- Call rule: 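Enhancer call for any duplex whose drug versus no-drug per-cell lactate ratio is below 0.55 (2 SD beneath non-targeting average); genes confirmed when at least 2 of their 4 duplexes qualify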

The opening 5 records, to show the layout:
gene	reagent	lactate per cell, drug vs no drug	lactate per cell with vemurafenib	Outcome
LRRC8D (leucine rich repeat containing 8 VRAC subunit D)	1	0.6	0.94	inactive
LRRC8D (leucine rich repeat containing 8 VRAC subunit D)	2	0.56	1.49	inactive
LRRC8D (leucine rich repeat containing 8 VRAC subunit D)	3	0.39	0.98	active
LRRC8D (leucine rich repeat containing 8 VRAC subunit D)	4	0.76	1.73	inactive
KIF5A (kinesin family member 5A)	1	0.52	0.81	active

The list itself, repeating the preview:
gene	reagent	lactate per cell, drug vs no drug	lactate per cell with vemurafenib	Outcome
LRRC8D (leucine rich repeat containing 8 VRAC subunit D)	1	0.6	0.94	inactive
LRRC8D (leucine rich repeat containing 8 VRAC subunit D)	2	0.56	1.49	inactive
LRRC8D (leucine rich repeat containing 8 VRAC subunit D)	3	0.39	0.98	active
LRRC8D (leucine rich repeat containing 8 VRAC subunit D)	4	0.76	1.73	inactive
KIF5A (kinesin family member 5A)	1	0.52	0.81	active
KIF5A (kinesin family member 5A)	2	0.72	2.12	inactive
KIF5A (kinesin family member 5A)	3	0.43	1.36	active
KIF5A (kinesin family member 5A)	4	0.5	1.55	active
VSTM2L (V-set and transmembrane domain containing 2 like)	1	0.58	1.32	inactive
VSTM2L (V-set and transmembrane domain containing 2 like)	2	0.77	1.58	inactive
VSTM2L (V-set and transmembrane domain containing 2 like)	3	0.76	2.68	inactive
VSTM2L (V-set and transmembrane domain containing 2 like)	4	0.6	0.78	inactive
C5orf22 (chromosome 5 open reading frame 22)	1	0.64	1.75	inactive
C5orf22 (chromosome 5 open reading frame 22)	2	0.54	1.71	active
C5orf22 (chromosome 5 open reading frame 22)	3	0.7	2.41	inactive
C5orf22 (chromosome 5 open reading frame 22)	4	0.67	1.17	inactive
SEL1L3 (SEL1L family member 3)	1	0.6	1	inactive
SEL1L3 (SEL1L family member 3)	2	0.48	0.94	active
SEL1L3 (SEL1L family member 3)	3	0.74	1.56	inactive
SEL1L3 (SEL1L family member 3)	4	0.32	0.77	active
ZFP36 (ZFP36 zinc finger CCCH-type)	1	0.43	1.78	active
ZFP36 (ZFP36 zinc finger CCCH-type)	2	0.31	0.8	active
ZFP36 (ZFP36 zinc finger CCCH-type)	3	0.64	2.43	inactive
ZFP36 (ZFP36 zinc finger CCCH-type)	4	0.51	1.54	active
BCORL1 (BCL6 corepressor like 1)	1	0.7	2.4	inactive
BCORL1 (BCL6 corepressor like 1)	2	0.72	1.23	inactive
BCORL1 (BCL6 corepressor like 1)	3	0.22	0.28	active
BCORL1 (BCL6 corepressor like 1)	4	0.48	0.86	active
SPARC (secreted protein acidic and cysteine rich)	1	0.64	1.52	inactive
SPARC (secreted protein acidic and cysteine rich)	2	0.52	1.28	active
SPARC (secreted protein acidic and cysteine rich)	3	0.5	1.52	active
SPARC (secreted protein acidic and cysteine rich)	4	0.62	0.8	inactive
STARD5 (StAR related lipid transfer domain containing 5)	1	0.74	4.18	inactive
STARD5 (StAR related lipid transfer domain containing 5)	2	0.64	1.95	inactive
STARD5 (StAR related lipid transfer domain containing 5)	3	0.96	1.23	inactive
STARD5 (StAR related lipid transfer domain containing 5)	4	0.72	0.98	inactive
CERS4 (ceramide synthase 4)	1	0.53	1.9	active
CERS4 (ceramide synthase 4)	2	0.96	12.2	inactive
CERS4 (ceramide synthase 4)	3	0.55	0.82	inactive
CERS4 (ceramide synthase 4)	4	0.64	0.88	inactive
PRXL2C (peroxiredoxin like 2C)	1	0.6	1.42	inactive
PRXL2C (peroxiredoxin like 2C)	2	0.64	1.88	inactive
PRXL2C (peroxiredoxin like 2C)	3	1.06	2.66	inactive
PRXL2C (peroxiredoxin like 2C)	4	0.52	0.84	active
PHYHD1 (phytanoyl-CoA dioxygenase domain containing 1)	1	0.61	1.19	inactive
PHYHD1 (phytanoyl-CoA dioxygenase domain containing 1)	2	0.51	1.13	active
PHYHD1 (phytanoyl-CoA dioxygenase domain containing 1)	3	0.89	2.88	inactive
PHYHD1 (phytanoyl-CoA dioxygenase domain containing 1)	4	0.55	0.97	inactive
TMEM128 (transmembrane protein 128)	1	0.46	0.86	active
TMEM128 (transmembrane protein 128)	2	0.7	3.97	inactive
TMEM128 (transmembrane protein 128)	3	0.48	0.86	active
TMEM128 (transmembrane protein 128)	4	0.68	1.02	inactive
